The assay has as its target T1, GFP-tagged mLgl2 (UniProt Q3TJ91).
T1 sequence: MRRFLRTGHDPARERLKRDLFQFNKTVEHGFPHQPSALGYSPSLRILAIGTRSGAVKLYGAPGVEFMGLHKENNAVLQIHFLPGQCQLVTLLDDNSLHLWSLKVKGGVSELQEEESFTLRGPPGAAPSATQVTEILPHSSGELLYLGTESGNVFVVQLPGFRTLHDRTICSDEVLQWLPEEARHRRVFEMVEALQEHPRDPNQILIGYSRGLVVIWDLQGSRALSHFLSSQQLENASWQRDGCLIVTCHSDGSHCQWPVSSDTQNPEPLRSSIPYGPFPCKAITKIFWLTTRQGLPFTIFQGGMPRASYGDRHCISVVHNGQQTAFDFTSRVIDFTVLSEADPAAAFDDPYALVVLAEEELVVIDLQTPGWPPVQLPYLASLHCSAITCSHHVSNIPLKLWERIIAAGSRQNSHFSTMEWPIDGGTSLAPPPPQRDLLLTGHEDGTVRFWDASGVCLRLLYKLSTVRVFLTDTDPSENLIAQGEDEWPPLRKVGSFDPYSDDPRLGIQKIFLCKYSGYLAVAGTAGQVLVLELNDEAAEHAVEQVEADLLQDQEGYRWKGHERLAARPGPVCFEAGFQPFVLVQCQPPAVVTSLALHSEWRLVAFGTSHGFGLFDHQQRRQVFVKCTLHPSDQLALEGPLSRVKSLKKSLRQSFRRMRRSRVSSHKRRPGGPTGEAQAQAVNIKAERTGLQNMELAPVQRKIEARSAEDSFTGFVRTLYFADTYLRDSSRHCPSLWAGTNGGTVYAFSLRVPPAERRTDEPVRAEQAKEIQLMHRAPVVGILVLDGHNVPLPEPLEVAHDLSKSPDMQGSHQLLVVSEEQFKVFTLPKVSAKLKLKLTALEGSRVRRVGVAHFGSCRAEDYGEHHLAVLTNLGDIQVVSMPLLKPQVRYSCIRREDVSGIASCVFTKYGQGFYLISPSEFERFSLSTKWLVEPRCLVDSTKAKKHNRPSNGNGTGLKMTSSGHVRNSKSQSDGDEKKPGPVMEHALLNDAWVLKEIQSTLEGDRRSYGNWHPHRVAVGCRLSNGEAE
The experiment in a line: affinity purification with mass spectrometry; lysates of parental or GFP-mLgl2-expressing MCF-7 cells, immunoprecipitation with control mouse IgG or anti-GFP antibody, SDS-PAGE and SYPRO Ruby staining; band excised, trypsin digest, LC-MS/MS.

Protein sequences, listed by entry. Tags and fused reporters are not part of them.
UniProt Q9Y4B6: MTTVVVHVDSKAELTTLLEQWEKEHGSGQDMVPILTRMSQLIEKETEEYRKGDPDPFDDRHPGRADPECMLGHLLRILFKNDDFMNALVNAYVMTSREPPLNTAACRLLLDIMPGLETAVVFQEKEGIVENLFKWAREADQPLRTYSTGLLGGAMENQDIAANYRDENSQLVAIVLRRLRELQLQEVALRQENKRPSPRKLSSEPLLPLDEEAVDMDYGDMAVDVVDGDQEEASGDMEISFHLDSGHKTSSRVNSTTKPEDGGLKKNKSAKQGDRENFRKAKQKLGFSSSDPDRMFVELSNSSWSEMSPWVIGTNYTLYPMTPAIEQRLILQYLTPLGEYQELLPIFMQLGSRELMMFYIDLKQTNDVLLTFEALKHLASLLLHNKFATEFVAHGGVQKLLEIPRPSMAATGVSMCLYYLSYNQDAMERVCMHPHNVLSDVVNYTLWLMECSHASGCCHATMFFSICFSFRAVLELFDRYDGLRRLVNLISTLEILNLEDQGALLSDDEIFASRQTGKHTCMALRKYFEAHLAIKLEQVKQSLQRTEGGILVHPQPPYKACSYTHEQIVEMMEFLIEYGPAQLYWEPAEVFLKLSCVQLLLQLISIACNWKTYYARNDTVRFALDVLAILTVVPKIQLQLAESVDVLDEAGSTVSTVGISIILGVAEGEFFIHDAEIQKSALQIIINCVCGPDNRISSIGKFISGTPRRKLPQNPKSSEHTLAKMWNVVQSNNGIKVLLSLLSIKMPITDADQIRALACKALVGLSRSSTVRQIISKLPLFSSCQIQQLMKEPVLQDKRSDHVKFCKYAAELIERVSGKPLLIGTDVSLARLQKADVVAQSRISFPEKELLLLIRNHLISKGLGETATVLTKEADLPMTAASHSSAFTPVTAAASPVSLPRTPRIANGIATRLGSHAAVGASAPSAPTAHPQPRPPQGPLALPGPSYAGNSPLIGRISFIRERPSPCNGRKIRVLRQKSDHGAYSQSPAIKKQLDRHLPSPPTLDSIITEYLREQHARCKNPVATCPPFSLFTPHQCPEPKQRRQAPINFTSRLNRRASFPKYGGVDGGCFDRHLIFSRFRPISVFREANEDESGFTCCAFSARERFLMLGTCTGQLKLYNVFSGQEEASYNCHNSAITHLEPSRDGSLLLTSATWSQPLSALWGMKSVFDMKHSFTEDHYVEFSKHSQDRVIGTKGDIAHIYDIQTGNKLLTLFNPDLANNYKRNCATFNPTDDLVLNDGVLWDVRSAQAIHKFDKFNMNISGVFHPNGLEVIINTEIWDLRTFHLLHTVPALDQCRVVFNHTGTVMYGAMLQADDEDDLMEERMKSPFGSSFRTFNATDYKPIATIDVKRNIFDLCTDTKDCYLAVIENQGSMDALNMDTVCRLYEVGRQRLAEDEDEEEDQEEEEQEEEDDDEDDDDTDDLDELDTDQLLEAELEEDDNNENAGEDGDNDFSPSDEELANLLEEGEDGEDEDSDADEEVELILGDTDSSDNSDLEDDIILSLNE

These are yes or no findings as the source states them, for the method shown. Binding seen in cells or lysates may run through a third protein. These calls come from enrichment with a bait or labelling near it, and not all partners need be listed. Tags and fused reporters may be left off the sequences shown.

In the case of “VprBP (viral protein R-binding protein), endogenous in MCF-7 cells (from UniProt Q9Y4B6 1-1507)”, the binding entry is “binds”.

These data come from publication PMC2903597.
